According to PMC5431167:
These are yes or no findings as the source states them, for the method shown. In cells and extracts the contact can be indirect. A yes stands for co-enrichment or nearness to the bait. Other partners may have been found. Tags and fused reporters may be left off the sequences shown.

Sequences of proteins named here, by UniProt entry; tags and fusion partners are left off. Residues count along the entry.
UniProt P25705, residues 44-553: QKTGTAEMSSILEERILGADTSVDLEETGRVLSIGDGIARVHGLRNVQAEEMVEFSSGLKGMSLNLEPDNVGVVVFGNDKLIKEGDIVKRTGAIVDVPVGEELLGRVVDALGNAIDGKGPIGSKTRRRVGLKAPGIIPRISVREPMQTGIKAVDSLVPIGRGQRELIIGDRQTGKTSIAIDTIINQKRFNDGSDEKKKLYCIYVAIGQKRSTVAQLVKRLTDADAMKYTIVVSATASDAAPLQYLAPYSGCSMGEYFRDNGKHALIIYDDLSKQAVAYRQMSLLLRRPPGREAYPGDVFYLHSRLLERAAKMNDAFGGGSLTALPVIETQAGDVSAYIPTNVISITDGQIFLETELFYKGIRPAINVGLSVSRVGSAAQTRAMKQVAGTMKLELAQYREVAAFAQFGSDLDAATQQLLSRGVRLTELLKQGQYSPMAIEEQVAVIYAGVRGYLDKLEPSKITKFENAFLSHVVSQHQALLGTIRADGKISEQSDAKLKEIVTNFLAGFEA
UniProt Q03135: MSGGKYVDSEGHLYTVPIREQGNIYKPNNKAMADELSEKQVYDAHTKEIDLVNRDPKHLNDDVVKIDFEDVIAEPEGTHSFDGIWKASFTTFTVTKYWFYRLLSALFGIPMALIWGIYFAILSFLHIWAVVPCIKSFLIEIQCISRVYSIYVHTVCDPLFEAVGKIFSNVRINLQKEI
UniProt P35908: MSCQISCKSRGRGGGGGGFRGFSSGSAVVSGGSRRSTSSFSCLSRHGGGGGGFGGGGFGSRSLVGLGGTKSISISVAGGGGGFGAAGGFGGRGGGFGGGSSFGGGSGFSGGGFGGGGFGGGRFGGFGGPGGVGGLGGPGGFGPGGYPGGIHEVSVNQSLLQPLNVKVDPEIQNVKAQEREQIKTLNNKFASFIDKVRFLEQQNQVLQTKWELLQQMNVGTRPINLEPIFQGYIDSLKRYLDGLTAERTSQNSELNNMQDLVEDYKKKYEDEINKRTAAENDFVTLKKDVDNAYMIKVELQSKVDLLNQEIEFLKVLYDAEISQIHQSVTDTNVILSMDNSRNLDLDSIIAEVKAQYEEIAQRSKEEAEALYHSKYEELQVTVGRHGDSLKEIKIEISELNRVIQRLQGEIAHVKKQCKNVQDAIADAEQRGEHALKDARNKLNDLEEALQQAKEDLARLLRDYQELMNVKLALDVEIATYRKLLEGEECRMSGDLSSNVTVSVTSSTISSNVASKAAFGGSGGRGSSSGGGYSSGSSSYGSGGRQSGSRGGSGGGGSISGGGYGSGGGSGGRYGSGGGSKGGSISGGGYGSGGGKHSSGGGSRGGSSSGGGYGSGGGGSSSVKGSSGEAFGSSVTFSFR
UniProt P51148: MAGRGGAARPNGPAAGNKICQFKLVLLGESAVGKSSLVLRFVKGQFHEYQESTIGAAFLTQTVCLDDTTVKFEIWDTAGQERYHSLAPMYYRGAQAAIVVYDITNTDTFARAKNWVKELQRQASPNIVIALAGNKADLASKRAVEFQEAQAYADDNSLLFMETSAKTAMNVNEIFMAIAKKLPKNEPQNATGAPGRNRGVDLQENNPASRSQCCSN
UniProt P61019: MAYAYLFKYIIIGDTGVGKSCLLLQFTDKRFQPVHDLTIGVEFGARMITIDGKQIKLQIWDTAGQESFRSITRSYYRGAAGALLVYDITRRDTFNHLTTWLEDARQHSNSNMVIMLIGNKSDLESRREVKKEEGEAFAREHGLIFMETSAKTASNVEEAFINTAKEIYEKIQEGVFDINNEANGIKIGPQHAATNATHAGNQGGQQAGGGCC
UniProt P20339: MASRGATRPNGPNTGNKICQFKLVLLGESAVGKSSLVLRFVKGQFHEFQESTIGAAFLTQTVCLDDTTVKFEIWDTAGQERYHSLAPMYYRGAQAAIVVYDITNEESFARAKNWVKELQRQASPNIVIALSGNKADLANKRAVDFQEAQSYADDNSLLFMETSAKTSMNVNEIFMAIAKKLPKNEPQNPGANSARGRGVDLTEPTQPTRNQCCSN
UniProt P20340: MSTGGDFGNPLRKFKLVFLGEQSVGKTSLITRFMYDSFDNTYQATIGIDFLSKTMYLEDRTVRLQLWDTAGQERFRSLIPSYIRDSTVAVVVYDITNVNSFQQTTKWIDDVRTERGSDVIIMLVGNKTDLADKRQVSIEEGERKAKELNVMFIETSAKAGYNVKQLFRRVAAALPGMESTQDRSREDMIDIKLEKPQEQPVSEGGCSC
UniProt P05067, residues 18-770: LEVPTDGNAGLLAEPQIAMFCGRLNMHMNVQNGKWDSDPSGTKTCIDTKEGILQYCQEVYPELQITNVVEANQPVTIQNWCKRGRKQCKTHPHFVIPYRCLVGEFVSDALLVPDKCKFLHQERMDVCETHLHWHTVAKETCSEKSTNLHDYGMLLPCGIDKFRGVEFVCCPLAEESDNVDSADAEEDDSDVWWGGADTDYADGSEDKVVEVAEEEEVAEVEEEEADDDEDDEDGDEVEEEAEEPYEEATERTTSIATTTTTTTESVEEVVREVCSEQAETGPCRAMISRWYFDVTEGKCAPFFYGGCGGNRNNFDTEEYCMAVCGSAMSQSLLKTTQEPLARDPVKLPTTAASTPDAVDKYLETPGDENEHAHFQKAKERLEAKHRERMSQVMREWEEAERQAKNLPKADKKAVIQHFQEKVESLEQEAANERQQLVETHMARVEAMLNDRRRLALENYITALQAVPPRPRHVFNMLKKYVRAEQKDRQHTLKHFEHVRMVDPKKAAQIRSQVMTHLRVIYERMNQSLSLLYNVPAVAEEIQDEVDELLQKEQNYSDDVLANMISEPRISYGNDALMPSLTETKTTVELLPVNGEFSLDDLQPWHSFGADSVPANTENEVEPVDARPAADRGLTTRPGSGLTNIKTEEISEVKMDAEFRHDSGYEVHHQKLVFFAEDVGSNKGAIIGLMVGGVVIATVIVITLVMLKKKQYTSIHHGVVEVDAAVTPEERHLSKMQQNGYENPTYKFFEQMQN

T1: recombinant flagellar hook protein FlgE of Pseudomonas aeruginosa PAO1 (Pseudomonas aeruginosa PAO1) (UniProt Q9I4P9)
T1 sequence: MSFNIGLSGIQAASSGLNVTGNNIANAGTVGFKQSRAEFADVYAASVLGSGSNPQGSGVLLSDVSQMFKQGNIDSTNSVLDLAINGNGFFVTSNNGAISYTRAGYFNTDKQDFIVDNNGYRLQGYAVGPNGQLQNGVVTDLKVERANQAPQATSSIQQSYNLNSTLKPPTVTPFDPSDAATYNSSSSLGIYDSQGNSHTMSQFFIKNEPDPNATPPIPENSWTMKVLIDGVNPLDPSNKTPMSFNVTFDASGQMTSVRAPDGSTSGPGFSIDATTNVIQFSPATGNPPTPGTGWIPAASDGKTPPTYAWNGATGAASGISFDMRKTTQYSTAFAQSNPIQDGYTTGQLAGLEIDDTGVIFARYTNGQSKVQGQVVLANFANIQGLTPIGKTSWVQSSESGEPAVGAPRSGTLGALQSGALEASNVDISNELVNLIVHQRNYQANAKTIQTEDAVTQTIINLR


target: T1, recombinant flagellar hook protein FlgE of Pseudomonas aeruginosa PAO1 (Pseudomonas aeruginosa PAO1); test: affinity purification with mass spectrometry; 500 μg purified His-tagged FlgE held on 100 μL His-agarose (nickel) beads; total membrane proteins of ~10^8 HCECs incubated in 300 μL PBS at 4 °C for 8 h; five PBS washes; eluted with 0.2 M glycine-HCl; six SDS-PAGE bands differing from the empty-bead control cut, trypsin, nano-LC-MS/MS, MASCOT score >= 114; only the target purified

Molecule | binding
ATP synthase subunit alpha, mitochondrial isoform a precursor (from UniProt P25705 44-553) | binds
ATP synthase subunit beta, mitochondrial precursor (from UniProt P06576 48-529) | binds
Caveolin-1 (from UniProt Q03135 1-178) | binds
Epidermal cytokeratin 2 (from UniProt P35908 1-639) | binds
Rab5c-like protein, similar to Canis familiaris Rab5c protein (from UniProt P51148 1-216) | binds
Ras-related protein Rab-2A isoform a (from UniProt P61019 1-212) | binds
Ras-related protein Rab-5A (from UniProt P20339 1-215) | binds
Ras-related protein Rab-6A isoform a (from UniProt P20340 1-208) | binds
amyloid preprotein (App) (from UniProt P05067 18-770) | binds
Ras family small GTP binding protein RALA (protein, UniProt P11233 1-206) MAANKPKGQNSLALHKVIMVGSGGVGKSALTLQFMYDEFVEDYEPTKADSYRKKVVLDGEEVQIDILDTAGQEDYAAIRDNYFRSGEGFLCVFSITEMESFAATADFREQILRVKEDENVPFLLVGNKSDLEDKRQVSVEEAKNRAEQWNVNYVETSAKTRANVDKVFFDLMREIRARKMEDSKEKNGKKKRKSLAKRIRERCCIL | binds
Ras-related protein Rab-5B isoform 1 (protein, UniProt P61020 1-215) MTSRSTARPNGQPQASKICQFKLVLLGESAVGKSSLVLRFVKGQFHEYQESTIGAAFLTQSVCLDDTTVKFEIWDTAGQERYHSLAPMYYRGAQAAIVVYDITNQETFARAKTWVKELQRQASPSIVIALAGNKADLANKRMVEYEEAQAYADDNSLLFMETSAKTAMNVNDLFLAIAKKLPKSEPQNLGGAAGRSRGVDLHEQSQQNKSQCCSN | binds
Ras-related protein Ral-B (protein, UniProt P11234 1-206) MAANKSKGQSSLALHKVIMVGSGGVGKSALTLQFMYDEFVEDYEPTKADSYRKKVVLDGEEVQIDILDTAGQEDYAAIRDNYFRSGEGFLLVFSITEHESFTATAEFREQILRVKAEEDKIPLLVVGNKSDLEERRQVPVEEARSKAEEWGVQYVETSAKTRANVDKVFFDLMREIRTKKMSENKDKNGKKSSKNKKSFKERCCLL | binds
ATP synthase subunit O, mitochondrial precursor (protein, UniProt P48047 24-213) FAKLVRPPVQVYGIEGRYATALYSAASKQNKLEQVEKELLRVAQILKEPKVAASVLNPYVKRSIKVKSLNDITAKERFSPLTTNLINLLAENGRLSNTQGVVSAFSTMMSVHRGEVPCTVTSASPLEEATLSELKTVLKSFLSQGQVLKLEAKTDPSILGGMIVRIGEKYVDMSVKTKIQKLGRAMREIV | binds
human hydroxysteroid sulfotransferase (protein, UniProt Q06520 1-285) MSDDFLWFEGIAFPTMGFRSETLRKVRDEFVIRDEDVIILTYPKSGTNWLAEILCLMHSKGDAKWIQSVPIWERSPWVESEIGYTALSETESPRLFSSHLPIQLFPKSFFSSKAKVIYLMRNPRDVLVSGYFFWKNMKFIKKPKSWEEYFEWFCQGTVLYGSWFDHIHGWMPMREEKNFLLLSYEELKQDTGRTIEKICQFLGKTLEPEELNLILKNSSFQSMKENKMSNYSLLSVDYVVDKAQLLRKGVSGDWKNHFTVAQAEDFDKLFQEKMADLPRELFPWE | binds
Cytokeratin 9 (protein, UniProt P35527 1-623) MSCRQFSSSYLSRSGGGGGGGLGSGGSIRSSYSRFSSSGGGGGGGRFSSSSGYGGGSSRVCGRGGGGSFGYSYGGGSGGGFSASSLGGGFGGGSRGFGGASGGGYSSSGGFGGGFGGGSGGGFGGGYGSGFGGFGGFGGGAGGGDGGILTANEKSTMQELNSRLASYLDKVQALEEANNDLENKIQDWYDKKGPAAIQKNYSPYYNTIDDLKDQIVDLTVGNNKTLLDIDNTRMTLDDFRIKFEMEQNLRQGVDADINGLRQVLDNLTMEKSDLEMQYETLQEELMALKKNHKEEMSQLTGQNSGDVNVEINVAPGKDLTKTLNDMRQEYEQLIAKNRKDIENQYETQITQIEHEVSSSGQEVQSSAKEVTQLRHGVQELEIELQSQLSKKAALEKSLEDTKNRYCGQLQMIQEQISNLEAQITDVRQEIECQNQEYSLLLSIKMRLEKEIETYHNLLEGGQEDFESSGAGKIGLGGRGGSGGSYGRGSRGGSGGSYGGGGSGGGYGGGSGSRGGSGGSYGGGSGSGGGSGGGYGGGSGGGHSGGSGGGHSGGSGGNYGGGSGSGGGSGGGYGGGSGSRGGSGGSHGGGSGFGGESGGSYGGGEEASGSGGGYGGGSGKSSHS | binds
